This list holds what a sample rich in targets with a hit left over. This is a noisy data set. The entries are a selection whose mix differs from that of the whole data set.
compound: COC(=O)/C=C/c1ccccc1 [methyl cinnamate]; assay: log2 ratio of iodoacetamide-alkyne labeling of the cysteine site, DMSO over compound (competition); higher = stronger covalent engagement of the cysteine by the compound, active = 1 or more; details: 500 µM; treatment time 1 h; system: HEK293T cell lysate
Outline: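 Reporter intensities give each cysteine's log2 competition ratio as the mean of control channels over the mean of compound channels. The samples were HEK293T lysate (2 mg/mL) given vehicle or electrophile (500 µM, 1 h, ambient temperature), then iodoacetamide alkyne (1 h), followed by click coupling to sCIP-TMT reagents, pooling, trypsin digestion overnight at 37 °C, streptavidin enrichment, acid elution, Orbitrap Eclipse LC-MS/MS with FAIMS and FragPipe quantification. Duplicate channels and three replicates were run, and cysteines quantified in only one replicate were discarded.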

Chains of the proteins cited; added tags and fusions are not shown. Lines headed by an entry give the natural chain unless they say otherwise; changes in a name come on top.
UniProt Q9P0U4, whole entry: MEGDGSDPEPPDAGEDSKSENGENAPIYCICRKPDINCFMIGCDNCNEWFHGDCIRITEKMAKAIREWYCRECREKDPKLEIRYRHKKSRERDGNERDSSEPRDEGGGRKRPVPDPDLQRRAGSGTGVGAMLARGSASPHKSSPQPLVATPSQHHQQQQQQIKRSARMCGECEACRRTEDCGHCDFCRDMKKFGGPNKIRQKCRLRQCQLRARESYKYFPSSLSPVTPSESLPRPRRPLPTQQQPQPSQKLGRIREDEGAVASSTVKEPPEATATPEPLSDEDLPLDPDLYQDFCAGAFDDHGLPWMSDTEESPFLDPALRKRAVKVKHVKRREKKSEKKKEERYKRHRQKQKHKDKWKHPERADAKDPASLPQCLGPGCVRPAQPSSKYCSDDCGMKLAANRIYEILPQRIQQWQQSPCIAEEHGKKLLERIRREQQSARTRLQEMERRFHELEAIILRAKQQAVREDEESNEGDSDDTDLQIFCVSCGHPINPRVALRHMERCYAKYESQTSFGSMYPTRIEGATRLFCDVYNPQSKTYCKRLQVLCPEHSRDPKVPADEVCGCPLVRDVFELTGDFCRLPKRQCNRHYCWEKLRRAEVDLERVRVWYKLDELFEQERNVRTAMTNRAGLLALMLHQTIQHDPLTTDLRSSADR
UniProt Q9NW64: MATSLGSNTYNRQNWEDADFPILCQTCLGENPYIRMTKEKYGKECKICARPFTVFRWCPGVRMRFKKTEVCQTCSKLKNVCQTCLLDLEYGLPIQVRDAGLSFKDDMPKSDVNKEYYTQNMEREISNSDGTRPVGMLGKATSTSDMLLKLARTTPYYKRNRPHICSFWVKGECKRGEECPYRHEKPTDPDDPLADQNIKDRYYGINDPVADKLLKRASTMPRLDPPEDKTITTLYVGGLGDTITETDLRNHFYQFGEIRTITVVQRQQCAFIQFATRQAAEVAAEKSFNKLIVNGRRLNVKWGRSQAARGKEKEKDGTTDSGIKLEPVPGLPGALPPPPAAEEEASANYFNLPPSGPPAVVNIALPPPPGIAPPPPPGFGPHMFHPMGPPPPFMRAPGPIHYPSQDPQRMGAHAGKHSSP
UniProt Q9UBF2: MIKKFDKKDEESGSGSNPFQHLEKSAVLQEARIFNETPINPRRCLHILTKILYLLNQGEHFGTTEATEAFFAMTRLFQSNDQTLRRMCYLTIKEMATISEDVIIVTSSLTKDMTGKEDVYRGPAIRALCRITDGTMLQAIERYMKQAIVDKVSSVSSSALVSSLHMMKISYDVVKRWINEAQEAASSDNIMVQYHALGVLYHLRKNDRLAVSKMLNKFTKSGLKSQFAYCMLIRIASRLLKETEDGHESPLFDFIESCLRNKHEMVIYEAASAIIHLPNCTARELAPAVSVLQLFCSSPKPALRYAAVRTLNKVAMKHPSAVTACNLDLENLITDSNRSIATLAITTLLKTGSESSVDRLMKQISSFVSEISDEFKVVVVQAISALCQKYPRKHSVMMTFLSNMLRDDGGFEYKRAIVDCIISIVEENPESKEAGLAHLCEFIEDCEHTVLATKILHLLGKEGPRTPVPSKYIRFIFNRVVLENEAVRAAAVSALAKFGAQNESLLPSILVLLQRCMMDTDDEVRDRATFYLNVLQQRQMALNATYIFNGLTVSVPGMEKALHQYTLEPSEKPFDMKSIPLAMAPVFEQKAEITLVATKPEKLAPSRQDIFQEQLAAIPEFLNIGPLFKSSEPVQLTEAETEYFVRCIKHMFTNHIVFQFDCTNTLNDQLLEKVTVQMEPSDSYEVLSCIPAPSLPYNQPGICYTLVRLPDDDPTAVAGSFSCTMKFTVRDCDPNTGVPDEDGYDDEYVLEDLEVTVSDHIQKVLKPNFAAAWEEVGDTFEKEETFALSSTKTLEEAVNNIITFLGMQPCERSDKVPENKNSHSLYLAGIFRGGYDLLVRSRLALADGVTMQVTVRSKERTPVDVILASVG
UniProt Q9NXU5: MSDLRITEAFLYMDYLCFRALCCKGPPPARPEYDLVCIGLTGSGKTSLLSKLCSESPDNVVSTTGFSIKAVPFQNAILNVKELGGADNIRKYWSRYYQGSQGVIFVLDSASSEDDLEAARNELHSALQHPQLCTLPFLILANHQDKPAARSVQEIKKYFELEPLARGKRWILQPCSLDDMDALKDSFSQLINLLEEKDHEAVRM
UniProt Q9UDR5: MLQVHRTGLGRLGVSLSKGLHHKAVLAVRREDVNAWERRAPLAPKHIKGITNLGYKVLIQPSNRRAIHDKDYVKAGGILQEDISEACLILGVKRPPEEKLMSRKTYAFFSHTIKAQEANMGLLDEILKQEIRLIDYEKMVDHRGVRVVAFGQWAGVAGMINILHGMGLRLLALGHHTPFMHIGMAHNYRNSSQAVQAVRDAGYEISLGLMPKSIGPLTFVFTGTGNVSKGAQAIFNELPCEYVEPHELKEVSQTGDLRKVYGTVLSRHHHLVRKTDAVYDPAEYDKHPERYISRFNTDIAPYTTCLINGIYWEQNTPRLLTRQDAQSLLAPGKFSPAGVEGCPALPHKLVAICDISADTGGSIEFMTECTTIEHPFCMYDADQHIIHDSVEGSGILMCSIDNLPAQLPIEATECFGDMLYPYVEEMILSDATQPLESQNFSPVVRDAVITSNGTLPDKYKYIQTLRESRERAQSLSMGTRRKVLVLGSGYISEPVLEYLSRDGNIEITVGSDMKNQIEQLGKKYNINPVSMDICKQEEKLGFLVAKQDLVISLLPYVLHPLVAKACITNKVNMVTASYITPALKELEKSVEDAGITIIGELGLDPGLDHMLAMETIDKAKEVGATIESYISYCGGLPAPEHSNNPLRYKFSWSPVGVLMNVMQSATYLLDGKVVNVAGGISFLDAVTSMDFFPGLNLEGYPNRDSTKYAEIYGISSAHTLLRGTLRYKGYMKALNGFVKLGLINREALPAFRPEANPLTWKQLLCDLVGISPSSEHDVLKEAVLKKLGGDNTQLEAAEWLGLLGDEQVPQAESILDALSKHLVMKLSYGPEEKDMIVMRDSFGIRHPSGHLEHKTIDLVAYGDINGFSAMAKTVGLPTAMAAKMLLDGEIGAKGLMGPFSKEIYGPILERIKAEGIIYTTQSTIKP
UniProt Q9P2E9: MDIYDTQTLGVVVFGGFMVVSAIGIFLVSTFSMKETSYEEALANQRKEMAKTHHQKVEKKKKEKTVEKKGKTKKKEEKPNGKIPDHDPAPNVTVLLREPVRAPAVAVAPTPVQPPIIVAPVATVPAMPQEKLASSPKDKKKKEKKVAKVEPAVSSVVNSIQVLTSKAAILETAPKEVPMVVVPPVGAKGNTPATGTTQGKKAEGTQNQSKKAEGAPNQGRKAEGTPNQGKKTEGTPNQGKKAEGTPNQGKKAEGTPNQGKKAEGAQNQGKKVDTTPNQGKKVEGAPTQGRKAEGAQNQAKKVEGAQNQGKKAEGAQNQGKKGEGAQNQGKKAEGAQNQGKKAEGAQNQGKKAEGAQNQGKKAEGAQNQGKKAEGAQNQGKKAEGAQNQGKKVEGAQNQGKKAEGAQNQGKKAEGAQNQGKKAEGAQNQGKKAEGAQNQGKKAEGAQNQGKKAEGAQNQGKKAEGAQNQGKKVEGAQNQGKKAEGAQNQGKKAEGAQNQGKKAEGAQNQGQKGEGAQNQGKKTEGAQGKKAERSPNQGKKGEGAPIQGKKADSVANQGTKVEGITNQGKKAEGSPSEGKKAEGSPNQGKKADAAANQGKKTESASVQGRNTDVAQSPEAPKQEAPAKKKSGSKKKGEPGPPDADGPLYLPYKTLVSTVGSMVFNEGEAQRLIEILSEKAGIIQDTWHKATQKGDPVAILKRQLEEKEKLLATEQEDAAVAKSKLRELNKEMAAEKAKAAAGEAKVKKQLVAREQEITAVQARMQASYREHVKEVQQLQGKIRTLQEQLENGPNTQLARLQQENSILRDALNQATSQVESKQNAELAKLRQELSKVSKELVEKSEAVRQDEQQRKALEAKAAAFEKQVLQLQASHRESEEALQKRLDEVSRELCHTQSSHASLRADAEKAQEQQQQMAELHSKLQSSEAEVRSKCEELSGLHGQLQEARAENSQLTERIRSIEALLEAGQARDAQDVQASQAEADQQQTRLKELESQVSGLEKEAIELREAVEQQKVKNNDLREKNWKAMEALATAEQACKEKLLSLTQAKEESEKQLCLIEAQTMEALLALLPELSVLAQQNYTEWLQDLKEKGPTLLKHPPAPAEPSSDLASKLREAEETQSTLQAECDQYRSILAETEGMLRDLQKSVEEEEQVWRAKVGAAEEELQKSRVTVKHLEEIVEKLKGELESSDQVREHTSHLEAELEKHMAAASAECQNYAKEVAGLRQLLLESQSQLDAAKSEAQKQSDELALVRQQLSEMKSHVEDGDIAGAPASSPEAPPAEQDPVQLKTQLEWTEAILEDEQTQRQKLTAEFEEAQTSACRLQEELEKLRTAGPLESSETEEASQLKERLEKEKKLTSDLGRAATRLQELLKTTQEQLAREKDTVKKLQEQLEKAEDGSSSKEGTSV
UniProt Q9UBQ5, whole entry: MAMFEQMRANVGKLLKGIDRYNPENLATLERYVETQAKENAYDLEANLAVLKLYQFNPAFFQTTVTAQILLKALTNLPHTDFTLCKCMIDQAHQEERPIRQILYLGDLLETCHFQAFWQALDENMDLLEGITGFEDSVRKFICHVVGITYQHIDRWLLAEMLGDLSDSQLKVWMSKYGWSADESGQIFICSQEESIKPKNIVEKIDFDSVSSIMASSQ
UniProt Q9UBD5: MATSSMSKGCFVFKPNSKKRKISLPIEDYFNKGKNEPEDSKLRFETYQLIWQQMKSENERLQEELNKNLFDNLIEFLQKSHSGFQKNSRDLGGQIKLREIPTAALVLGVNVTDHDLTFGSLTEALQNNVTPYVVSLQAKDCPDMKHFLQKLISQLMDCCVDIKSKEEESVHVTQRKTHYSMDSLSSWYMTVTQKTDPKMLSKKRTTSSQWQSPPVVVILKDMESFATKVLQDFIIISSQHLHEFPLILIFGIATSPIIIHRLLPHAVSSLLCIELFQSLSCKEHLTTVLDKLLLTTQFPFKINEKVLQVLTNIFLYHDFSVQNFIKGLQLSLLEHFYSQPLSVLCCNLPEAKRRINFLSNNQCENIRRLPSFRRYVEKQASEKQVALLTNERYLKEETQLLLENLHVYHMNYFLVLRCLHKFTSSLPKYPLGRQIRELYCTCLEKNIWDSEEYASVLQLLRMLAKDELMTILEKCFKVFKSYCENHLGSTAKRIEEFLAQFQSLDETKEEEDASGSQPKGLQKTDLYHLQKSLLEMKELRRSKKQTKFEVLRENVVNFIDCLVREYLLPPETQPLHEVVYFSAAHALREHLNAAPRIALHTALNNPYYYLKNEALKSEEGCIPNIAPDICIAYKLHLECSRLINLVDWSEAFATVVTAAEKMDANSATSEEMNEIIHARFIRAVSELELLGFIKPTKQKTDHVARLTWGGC
UniProt Q9UGI8: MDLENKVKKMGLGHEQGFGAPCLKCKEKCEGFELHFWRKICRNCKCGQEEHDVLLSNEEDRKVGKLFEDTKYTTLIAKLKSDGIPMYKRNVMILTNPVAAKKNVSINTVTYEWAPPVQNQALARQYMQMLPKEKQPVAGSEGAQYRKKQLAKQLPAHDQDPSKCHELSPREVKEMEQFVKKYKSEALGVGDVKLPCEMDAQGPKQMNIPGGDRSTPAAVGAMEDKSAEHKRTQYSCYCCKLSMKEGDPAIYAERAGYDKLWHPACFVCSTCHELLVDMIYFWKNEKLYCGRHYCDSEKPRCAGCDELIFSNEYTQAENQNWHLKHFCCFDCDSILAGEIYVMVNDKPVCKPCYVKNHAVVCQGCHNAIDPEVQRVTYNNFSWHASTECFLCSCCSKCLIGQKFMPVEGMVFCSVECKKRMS
UniProt Q9UGP8: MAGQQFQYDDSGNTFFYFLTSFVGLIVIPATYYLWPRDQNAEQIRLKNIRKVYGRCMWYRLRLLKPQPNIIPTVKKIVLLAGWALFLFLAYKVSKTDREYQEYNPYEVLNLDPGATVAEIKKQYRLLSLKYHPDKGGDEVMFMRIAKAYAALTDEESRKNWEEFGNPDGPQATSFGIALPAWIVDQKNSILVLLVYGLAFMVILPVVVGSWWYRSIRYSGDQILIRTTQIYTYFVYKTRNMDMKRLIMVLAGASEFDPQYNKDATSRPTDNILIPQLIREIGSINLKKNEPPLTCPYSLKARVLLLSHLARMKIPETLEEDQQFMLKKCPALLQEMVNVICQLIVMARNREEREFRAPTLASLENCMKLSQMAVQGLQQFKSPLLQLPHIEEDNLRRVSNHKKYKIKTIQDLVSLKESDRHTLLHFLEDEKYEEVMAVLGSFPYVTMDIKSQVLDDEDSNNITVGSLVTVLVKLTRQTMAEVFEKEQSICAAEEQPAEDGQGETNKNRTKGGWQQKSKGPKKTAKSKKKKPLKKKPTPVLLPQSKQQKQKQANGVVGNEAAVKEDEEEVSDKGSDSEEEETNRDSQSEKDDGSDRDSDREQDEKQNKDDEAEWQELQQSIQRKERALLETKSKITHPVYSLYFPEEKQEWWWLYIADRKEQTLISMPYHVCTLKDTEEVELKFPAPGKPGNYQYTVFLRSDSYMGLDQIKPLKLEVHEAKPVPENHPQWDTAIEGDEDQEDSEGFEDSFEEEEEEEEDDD

Target | log2 ratio of iodoacetamide-alkyne labeling
CXXC1 C531 (UniProt Q9P0U4) | inactive: 0.09
UniProt Q9NW64_C27 | inactive: -0.0314
UniProt Q9P1F3_C39 | inactive: 0.232
ZMYM2 C852 (UniProt Q9UBW7) | inactive: 0.353
DDX56 C298 (UniProt Q9NY93) | inactive: -0.132
OGFR C330 (UniProt Q9NZT2) | inactive: 0.44
CHCHD3 C112 (UniProt Q9NX63) | inactive: 0.107
COPG2 C420 (UniProt Q9UBF2) | inactive: -0.178
ARL15 C53 (UniProt Q9NXU5) | inactive: 0.304
AASS C305 (UniProt Q9UDR5) | inactive: 0.0113
UniProt Q9NVH0_C109 | inactive: 0.36
RRBP1 C892 (UniProt Q9P2E9) | inactive: 0.137
POLR3E C70 (UniProt Q9NVU0) | inactive: 0.168
EIF3K C85 (UniProt Q9UBQ5) | inactive: 0.0884
SLTM C568 (UniProt Q9NWH9) | inactive: 0.0176
DAXX C338 (UniProt Q9UER7) | inactive: 0.154
DPP3 C147 (UniProt Q9NY33) | inactive: 0.135
DPP3 C176 (UniProt Q9NY33) | inactive: 0.526
ALKBH4 C126 (UniProt Q9NXW9) | inactive: -0.0741

Some of the entries above, reformatted:
CXXC1 C531 (UniProt Q9P0U4)
  log2 ratio of iodoacetamide-alkyne labeling: inactive: 0.09
UniProt Q9P1F3_C39
  log2 ratio of iodoacetamide-alkyne labeling: inactive: 0.232
AASS C305 (UniProt Q9UDR5)
  log2 ratio of iodoacetamide-alkyne labeling: inactive: 0.0113

The list goes on.

Target | log2 ratio of iodoacetamide-alkyne labeling
COPG2 C440 (UniProt Q9UBF2) | inactive: 0.0844
UniProt Q9UBD5_C363 | inactive: 0.11
MAT2B C58 (UniProt Q9NZL9) | inactive: 0.0738
DDX18 C329 (UniProt Q9NVP1) | inactive: 0.273
KCTD5 C6 (UniProt Q9NXV2) | inactive: 0.12
RCC2 C42 (UniProt Q9P258) | inactive: 0.298
ANKFY1 C742 (UniProt Q9P2R3) | inactive: 0.0443
TES C196 (UniProt Q9UGI8) | inactive: 0.188
LARS C527 (UniProt Q9P2J5) | inactive: -0.214
COPG2 C325 (UniProt Q9UBF2) | inactive: 0.0417
SEC63 C366 (UniProt Q9UGP8) | inactive: 0.0859
DNAJC11 C235 (UniProt Q9NVH1) | inactive: 0.0577
MED17 C110 (UniProt Q9NVC6) | inactive: 0.0885
FTSJ1 C238 (UniProt Q9UET6) | inactive: 0.0433
UniProt Q9UBD5_C159 | inactive: 0.679
ALKBH4 C194 (UniProt Q9NXW9) | inactive: -0.0409
TRMT1 C639 (UniProt Q9NXH9) | inactive: 0.248
ABCF3 C4 (UniProt Q9NUQ8) | inactive: 0.176
